Assay results reported in PMC9366055.
No constants are given. Whether binding was seen depends on the method and setting. Binding seen in cells or lysates may run through a third protein. Binding can be weak; no strength is given. Sequences can lack the tags named with a protein.

Legend:
[1] = target: T1, GST-HrcQ (X. euvesicatoria) (UniProt Q9WWF7); assay: pull-down; GST or GST fusion from E. coli BL21 (DE3) lysate immobilised on glutathione sepharose, washed, incubated with a bacterial lysate containing the c-Myc-tagged partner for 2 h at 4°C; eluted with Laemmli buffer; immunoblot with c-Myc- and GST-specific antibodies; only the target purified
T1 sequence: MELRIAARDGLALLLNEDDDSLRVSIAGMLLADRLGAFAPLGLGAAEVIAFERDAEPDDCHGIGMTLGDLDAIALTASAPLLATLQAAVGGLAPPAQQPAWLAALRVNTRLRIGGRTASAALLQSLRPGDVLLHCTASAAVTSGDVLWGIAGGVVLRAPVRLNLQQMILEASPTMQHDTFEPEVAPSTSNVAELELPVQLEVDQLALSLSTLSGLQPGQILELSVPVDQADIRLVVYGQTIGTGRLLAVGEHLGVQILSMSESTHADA

[2] = target: T2, GST-HpaB (X. euvesicatoria) (UniProt Q9WWG3); assay: as above
T2 sequence: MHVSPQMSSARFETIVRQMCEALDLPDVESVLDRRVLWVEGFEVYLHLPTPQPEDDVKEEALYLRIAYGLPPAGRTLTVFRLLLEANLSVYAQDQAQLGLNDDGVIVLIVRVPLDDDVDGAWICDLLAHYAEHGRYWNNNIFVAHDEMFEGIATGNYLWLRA

**Q.** “HpaA_(∆2-70)-c-Myc (X. euvesicatoria strain 85-10) (domain or fragment)” was tested. Which binding [1] did it give?
**A.** Its binding is “binds”.

**Q.** What about the binding [2] of the same substance?
**A.** Its binding is “binds”.
